In article PMC10809841, “Transferrin Is Up-Regulated by Microbes and Acts as a Negative Regulator of Immunity to Induce Intestinal Immunotolerance” (Research, 2024):
No constants are given. Whether binding was seen depends on the method and setting. In cells and extracts the contact can be indirect. These calls come from enrichment with a bait or labelling near it, and not all partners need be listed.

Protein sequences, listed by entry. Tags and fused reporters are not part of them. Residues count along the entry.
UniProt P02787, residues 20-698: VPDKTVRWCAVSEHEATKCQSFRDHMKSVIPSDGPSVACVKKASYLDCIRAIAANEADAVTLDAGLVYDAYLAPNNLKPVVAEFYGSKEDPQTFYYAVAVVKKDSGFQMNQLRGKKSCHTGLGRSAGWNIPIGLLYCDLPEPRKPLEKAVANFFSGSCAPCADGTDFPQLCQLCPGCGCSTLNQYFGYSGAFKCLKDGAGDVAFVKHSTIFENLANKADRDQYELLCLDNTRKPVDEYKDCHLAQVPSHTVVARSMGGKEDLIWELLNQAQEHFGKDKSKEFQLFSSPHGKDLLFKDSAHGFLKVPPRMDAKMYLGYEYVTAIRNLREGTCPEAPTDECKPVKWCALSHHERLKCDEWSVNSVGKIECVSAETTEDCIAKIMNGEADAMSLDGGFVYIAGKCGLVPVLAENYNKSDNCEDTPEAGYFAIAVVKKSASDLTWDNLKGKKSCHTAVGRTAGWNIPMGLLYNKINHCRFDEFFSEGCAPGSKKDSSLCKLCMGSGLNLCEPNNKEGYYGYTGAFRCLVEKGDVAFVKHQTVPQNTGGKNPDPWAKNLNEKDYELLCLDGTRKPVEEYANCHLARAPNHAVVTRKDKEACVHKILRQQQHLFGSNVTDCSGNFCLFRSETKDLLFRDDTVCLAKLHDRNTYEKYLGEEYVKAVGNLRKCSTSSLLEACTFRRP

Molecular target: transferrin (in human PBMCs and primary macrophages) (human (in PBMCs and primary macrophages)) (UniProt P02787)
Assay: affinity purification with mass spectrometry; mass spectrometry-based coimmunoprecipitation to screen targets of transferrin in human PBMCs

binding: binds
B1: cluster of differentiation 14 (CD14) (receptor, UniProt P08571 20-345, looked up)
chain: TTPEPCELDDEDFRCVCNFSEPQPDWSEAFQCVSAVEVEIHAGGLNLEPFLKRVDADADPRQYADTVKALRVRRLTVGAAQVPAQLLVGALRVLAYSRLKELTLEDLKITGTMPPLPLEATGLALSSLRLRNVSWATGRSWLAELQQWLKPGLKVLSIAQAHSPAFSCEQVRAFPALTSLDLSDNPGLGERGLMAALCPHKFPAIQNLALRNTGMETPTGVCAALAAAGVQPHSLDLSHNSLRATVNPSAPRCMWSSALNSLNLSFAGLEQVPKGLPAKLRVLDLSCNRLNRAPQPDELPEVDNLTLDGNPFLVPGTALPHEGSMN
notes: CD14, TLR coreceptor; isolated protein used in SPR and native gel; Probably a soluble recombinant CD14; also called WT-CD14; wild-type CD14
